These are yes or no findings as the source states them, for the method shown. Some results given as binding are weak or reduced against the parent protein; the word gives no strength.
Tests used:
[1] = biological target: T1, active human PAI-1 in complex with vitronectin (human) (UniProt P05121+P04004); assay: ELISA, vitronectin-coated plate with active human PAI-1 added
[2] = biological target: T1, active human PAI-1 in complex with vitronectin (human); assay: ELISA, VTN-PAI-1 complex on the plate
[3] = biological target: T1, active human PAI-1 in complex with vitronectin (human); assay: ELISA of Example 6, told again in Example 11

Chains of the proteins cited; added tags and fusions are not shown. Lines headed by an entry give the natural chain unless they say otherwise; changes in a name come on top.
UniProt P04004: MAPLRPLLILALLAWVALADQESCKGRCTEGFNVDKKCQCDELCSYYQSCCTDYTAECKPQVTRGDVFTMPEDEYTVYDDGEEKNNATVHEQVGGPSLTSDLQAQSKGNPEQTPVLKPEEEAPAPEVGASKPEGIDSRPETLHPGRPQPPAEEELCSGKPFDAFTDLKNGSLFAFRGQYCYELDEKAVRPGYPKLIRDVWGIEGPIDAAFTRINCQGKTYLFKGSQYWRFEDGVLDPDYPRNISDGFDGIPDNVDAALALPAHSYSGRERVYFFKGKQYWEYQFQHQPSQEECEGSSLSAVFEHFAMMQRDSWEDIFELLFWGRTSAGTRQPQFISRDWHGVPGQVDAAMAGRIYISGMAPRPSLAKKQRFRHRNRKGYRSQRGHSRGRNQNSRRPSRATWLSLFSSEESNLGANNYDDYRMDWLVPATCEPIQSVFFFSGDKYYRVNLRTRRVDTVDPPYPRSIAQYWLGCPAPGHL

B1: HOT-1 (chimeric antibody) (antibody, V domains shown)
VH: EVQLVESGGGVVRPGGSLRLSCAASGFTFDDHGMTWVRQAPGKGLEWVSGINWNGARTVYADSVKGRFTISRDNAKNSLYLHLISLRAEDTALYHCARDRGLGLFDYWGQGTLVTVSS
VL: DIQMTQSPSTLSASVGDRVTITCRASQSISSWLAWYQQKPGKVPKILIYKASRLESGVPSRISGSGSGTEFTLTISSLQPDDFATYYCQQYNGYSYTFGQGTKLEIKR
With B1 the binding [1] was “binds”.

B2: fully human HOT-1 (antibody, human IgG1, kappa, V domains shown)
VH: EVQLVESGGGVVRPGGSLRLSCAASGFTFDDHGMTWVRQAPGKGLEWVSGINWNGARTVYADSVKGRFTISRDNAKNSLYLHLISLRAEDTALYHCARDRGLGLFDYWGQGTLVTVSS
VL: DIQMTQSPSTLSASVGDRVTITCRASQSISSWLAWYQQKPGKVPKILIYKASRLESGVPSRISGSGSGTEFTLTISSLQPDDFATYYCQQYNGYSYTFGQGTKLEIKR
In the case of B2, the binding [2] is reported as “binds” and the binding [3] is reported as “binds”.

Reference: patent US20160369008A1
